This data set can be described thus: general procedure: Fmoc solid-phase peptide synthesis; Rink amide resin; DIC/HBt; DIC/Oxyma for lactam formation. To be noted: whole synthesis, analytical HPLC/MS.

The source of these data is patent US12171806B2 (priority 2021, dated 2024).

As to pemvidutide, the “final HPLC purity” value was over 94%.
